PubChem BioAssay AID1259415 (National Center for Advancing Translational Sciences (NCATS), 2018)
Among all 410,000 compounds or so, about 18,000 (4.4%) were called active. The inconclusive results got no clear call from the source; some entries with a clear call stand among them for comparison. Rule as the data show it: active = activity change below about -60%; inconclusive = no clear call, values can overlap the other calls; inactive = above about -39%.

Experiment: qHTS Assay for inhibitors of the human cytomegalovirus (HCMV)
Settings: HFF cells, HCMV-luciferase reporter, 72 h; at 57.5 µM; stronger effect = lower value
Summary of the method: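 Compounds were evaluated in HFFs infected with an HCMV luciferase reporter virus (MOI 1 PFU/cell). Luciferase in lysates collected 72 h post infection served as the replication measure.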
% is scaled to controls: 0 for no effect and ±100 for the full control effect.

Row | Compound | activity change, negative = inhibition
1 | N#Cc1ccccc1COc1ccc(/C=C/C(=O)O)cc1 | active: -71%
2 | CCn1ncc(CN2CCC(C(=O)Nc3cccc(-c4cccc(F)c4)c3)CC2)c1C | inconclusive: -52.7%
3 | COc1cc2sc3ccc(-c4ccc(CN5CCOCC5)cc4)cc3c(=O)c2cc1OC | inconclusive: -51.3%
4 | COc1ccc(C(O)c2nc(-c3cc(F)cc(Cl)c3)cs2)cc1 (stereo unspecified) | inactive: 0.0328%
5 | COc1ccc(C(=O)C2CN(c3ccccc3)CC2c2ccc(Cl)cc2)cc1 (stereo unspecified) | inconclusive: -43%
6 | CCC(C)[C@H](NC(=O)NC(C)C)C(=O)O (stereo partly specified) | inconclusive: -45.3%
7 | Cc1ccc(-n2c(SCC(N)=O)nc(O)cc2=O)cc1 | inconclusive: -46.4%
8 | O=C(NNC(=O)C1CCC1)c1ccc(F)cc1 | inactive: -1.12%
9 | Cc1[nH]c2ccccc2c1C(=O)C(C)OC(=O)c1ccc([N+](=O)[O-])o1 (stereo unspecified) | inactive: -5.99%
10 | O=C(Nc1ccccc1Cl)N1CCCN(c2nc(-c3ccccc3)ns2)CC1 | inconclusive: -42.6%
11 | COc1ccc(OC)c(NC(=O)c2ccc(CSc3ncccn3)cc2)c1 | inconclusive: -53.8%
12 | Cc1onc(-c2ccccc2Cl)c1C(=O)Nc1cccc(S(=O)(=O)N2CCOCC2)c1 | inactive: -7.62%
13 | Cc1cc(Nc2nc3ccccc3nc2Cl)n(-c2ccccc2)n1 | active: -90%
14 | O=C(Nc1ncc(Cc2ccc(SC(F)F)cc2)s1)c1ccccc1 | inconclusive: -43.6%
15 | CCOC(=O)C1CCN(S(=O)(=O)c2ccc(-n3cnnn3)c(C)c2)CC1 | inconclusive: -41.1%
16 | CCOC(=O)c1nc(NNC(=O)c2ccc([N+](=O)[O-])cc2)sc1C | active: -96.6%
17 | CC1(C)CNc2cc(N)ccc2S1 | inconclusive: -46.6%
18 | CN(Cc1ccc(Cl)cc1)C(=O)CCl | active: -64.3%
19 | Oc1ccccc1N=Cc1c(O)ccc2ccccc12 | active: -69.9%
20 | CCCCCNC(=O)N[C@H](C(=O)O)C(C)C | inactive: -4.77%
21 | COc1ccc(C(=O)NNC(=O)CSc2nnc(C)n2C)cc1 | inconclusive: -45.8%
22 | C/C(=N/NC(=O)c1cc(-c2ccccc2)nc2c(Cl)cccc12)c1cccnc1 | inconclusive: -47.7%
23 | COc1cc(NS(=O)(=O)c2ccc(C)c(C)c2)c(OC)cc1Cl | active: -69.3%
24 | CCC(NC(=S)NCc1ccc(F)cc1)c1ccc(C(C)C)cc1 (stereo unspecified) | active: -97.2%
25 | Cc1nc2ccc(NC(=S)N3CCOCC3)cc2nc1C | inactive: -25.3%
26 | CCCN1CCN(CCCNC(=O)C2CCN(c3nnc(-n4c(C)ccc4C)s3)CC2)CC1 | inconclusive: -43.1%

2 entries from above, comma-delimited.
Row,Compound,"activity change, negative = inhibition"
16,CCOC(=O)c1nc(NNC(=O)c2ccc([N+](=O)[O-])cc2)sc1C,active: -96.6%
17,CC1(C)CNc2cc(N)ccc2S1,inconclusive: -46.6%
